This is an account of results in publication PMC5147768.

By UniProt entry, the sequences of proteins in these tests, tags left out.
UniProt Q9SP32: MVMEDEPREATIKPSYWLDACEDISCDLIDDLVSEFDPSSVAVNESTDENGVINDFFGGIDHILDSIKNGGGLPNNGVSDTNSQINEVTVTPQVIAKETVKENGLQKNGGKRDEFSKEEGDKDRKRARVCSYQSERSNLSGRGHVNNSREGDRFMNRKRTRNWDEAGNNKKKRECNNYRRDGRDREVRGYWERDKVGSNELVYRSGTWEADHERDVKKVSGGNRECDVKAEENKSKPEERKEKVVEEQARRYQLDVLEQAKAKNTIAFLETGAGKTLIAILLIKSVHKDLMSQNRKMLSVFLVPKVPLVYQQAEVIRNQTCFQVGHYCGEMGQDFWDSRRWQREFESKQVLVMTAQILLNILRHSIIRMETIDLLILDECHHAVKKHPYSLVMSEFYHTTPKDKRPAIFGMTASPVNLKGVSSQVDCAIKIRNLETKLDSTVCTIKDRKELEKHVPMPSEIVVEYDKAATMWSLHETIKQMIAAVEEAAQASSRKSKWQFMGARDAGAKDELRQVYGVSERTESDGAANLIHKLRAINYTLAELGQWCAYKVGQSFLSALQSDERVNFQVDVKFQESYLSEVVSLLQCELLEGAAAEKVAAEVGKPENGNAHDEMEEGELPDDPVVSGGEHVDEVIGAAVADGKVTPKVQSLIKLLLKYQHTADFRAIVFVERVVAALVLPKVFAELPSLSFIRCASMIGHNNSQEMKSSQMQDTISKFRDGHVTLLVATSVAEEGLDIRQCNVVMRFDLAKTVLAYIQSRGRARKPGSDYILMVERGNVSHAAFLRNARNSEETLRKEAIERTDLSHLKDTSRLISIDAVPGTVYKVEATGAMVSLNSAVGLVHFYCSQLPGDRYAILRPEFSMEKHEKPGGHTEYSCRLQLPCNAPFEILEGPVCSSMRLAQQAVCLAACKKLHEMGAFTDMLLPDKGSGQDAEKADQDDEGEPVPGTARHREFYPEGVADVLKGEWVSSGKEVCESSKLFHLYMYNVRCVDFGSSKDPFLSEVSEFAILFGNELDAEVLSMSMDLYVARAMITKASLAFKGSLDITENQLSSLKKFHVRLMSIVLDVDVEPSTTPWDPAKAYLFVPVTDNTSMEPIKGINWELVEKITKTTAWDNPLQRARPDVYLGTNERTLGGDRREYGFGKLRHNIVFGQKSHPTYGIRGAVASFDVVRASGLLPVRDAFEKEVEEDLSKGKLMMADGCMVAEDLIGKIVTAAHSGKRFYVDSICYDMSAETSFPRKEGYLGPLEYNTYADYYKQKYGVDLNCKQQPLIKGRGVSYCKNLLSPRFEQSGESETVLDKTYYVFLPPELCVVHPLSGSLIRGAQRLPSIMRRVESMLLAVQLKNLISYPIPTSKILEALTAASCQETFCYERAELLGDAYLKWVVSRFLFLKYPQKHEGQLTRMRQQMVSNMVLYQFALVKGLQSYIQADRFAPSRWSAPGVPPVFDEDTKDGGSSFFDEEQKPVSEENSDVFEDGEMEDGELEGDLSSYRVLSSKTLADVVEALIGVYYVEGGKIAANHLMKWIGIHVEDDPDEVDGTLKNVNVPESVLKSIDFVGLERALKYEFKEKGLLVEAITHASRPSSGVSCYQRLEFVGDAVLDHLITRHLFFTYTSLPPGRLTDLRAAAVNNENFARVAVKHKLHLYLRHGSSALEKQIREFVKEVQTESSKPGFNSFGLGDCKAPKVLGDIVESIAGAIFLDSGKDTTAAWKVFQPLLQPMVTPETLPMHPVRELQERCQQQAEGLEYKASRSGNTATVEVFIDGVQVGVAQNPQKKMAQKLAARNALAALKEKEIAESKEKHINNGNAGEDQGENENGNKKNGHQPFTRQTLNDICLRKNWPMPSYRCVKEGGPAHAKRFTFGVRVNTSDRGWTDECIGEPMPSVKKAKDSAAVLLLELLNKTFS

For this assay, the target named is DCL1-YFP (Dicer-Like 1 fused to YFP) (Arabidopsis thaliana) (UniProt Q9SP32). As to the kind of experiment: co-IP; DCL1-YFP co-expressed with DBR1-Flag, HYL1-Flag or SE-Flag in N. benthamiana; leaf lysate (50 mM Tris-HCl pH 8.0, 150 mM NaCl, 0.2% Nonidet P-40, 2 mM DTT, 5% glycerol) incubated with GFP-Trap agarose beads for 2 h; western blot with anti-GFP and anti-Flag.

No constants are given. Whether binding was seen depends on the method and setting. In cells and extracts the contact can be indirect. Some binding calls cover weakened binding; strength is not graded here. Sequences can lack the tags named with a protein.

B1: HYL1-Flag (protein, UniProt O04492 1-419)
chain: MTSTDVSSGVSNCYVFKSRLQEYAQKYKLPTPVYEIVKEGPSHKSLFQSTVILDGVRYNSLPGFFNRKAAEQSAAEVALRELAKSSELSQCVSQPVHETGLCKNLLQEYAQKMNYAIPLYQCQKVETLGRVTQFTCTVEIGGIKYTGAATRTKKDAEISAGRTALLAIQSDTKNNLANYNTQLTVLPCEKKTIQAAIPLKETVKTLKARKAQFKKKAQKGKRTVAKNPEDIIIPPQPTDHCQNDQSEKIETTPNLEPSSCMNGLKEAAFGSVETEKIETTPNLEPPSCMNGLKEAAFGSVETEKIETTPNLEPPSCMNGLKEAAFGSVETEKIETTPNLEPSSCMNGLKEAAFGSVETEKIETTPNLEPPSCMNGLKEAAFGSVETEKIETTPNLESSSCMSGLKEAAFGSVETEASHA
B1: the binding entry is “binds”.

B2: SE-Flag (protein, UniProt Q9ZVD0 1-720)
chain: MADVNLPPSDSVDNRLPEKSTSSSPPPPPPSSSLPQQEQEQDQQQLPLRRERDSRERRDERDIERPPPNRRERDRSPLPPPRRDYKRRPSLSPPPPYRDRRHSPPQRRSPPQKRYRRDDNGYDGRRGSPRGGYGPPDRRFGYDHGGGYDREMGGRPGYGDERPHGRFMGRYQDWEGGRGGYGDASNSGNPQRDGLMSYKQFIQELEDDILPSEAERRYQEYKSEYITTQKRAFFNTHKEEDWLKNKYHPTNLLSVIERRNDLAQKVAKDFLLDLQSGTLDLGPAVTALNKSGRTSEPNSEDEAAGVGKRKRHGMGGAKENELLSAAPKAPSFTSDPKRILTDVEQTQALVRKLDSEKKIEENVLQGSETEKSGREKLHSGSTGPVVIIRGLTSVKGLEGVELLDTLVTYLWRVHGLDYYGKVETNEAKGLRHVRAEGKVSDAKGDENESKFDSHWQERLKGQDPLEVMAAKEKIDAAATEALDPHVRKIRDEKYGWKYGCGAKGCTKLFHAAEFVYKHLKLKHTELVTELTTKVREELYFQNYMNDPNAPGGQPATQQSGPRDRPIRRKPSMENRLRDDRGGRRERDGRANGNDRNDRSEDQQRGDNDGGNPGEVGYDAFGGQGGVHVPPFLSDINPPPMLMPVPGAGPLGPFVPAPPEVAMQMFRDPSGPNPPFEGSGRGGPAPFLLSPAFRQDPRRLRSYQDLDAPEEEVTVIDYRSL
Turning to B2, the binding result is “binds”.
